These results are taken from publication PMC7194077.

Results are given in words; binding and its absence hold for the method and conditions named. In cells and extracts the contact can be indirect. These calls come from enrichment with a bait or labelling near it, and not all partners need be listed. Sequences can lack the tags named with a protein.

For assay [1], the target named is T1, C-terminally S-tagged derivative of NctA (NctA-S-tag) (Aspergillus fumigatus) (UniProt B0XTT5).
T1 sequence: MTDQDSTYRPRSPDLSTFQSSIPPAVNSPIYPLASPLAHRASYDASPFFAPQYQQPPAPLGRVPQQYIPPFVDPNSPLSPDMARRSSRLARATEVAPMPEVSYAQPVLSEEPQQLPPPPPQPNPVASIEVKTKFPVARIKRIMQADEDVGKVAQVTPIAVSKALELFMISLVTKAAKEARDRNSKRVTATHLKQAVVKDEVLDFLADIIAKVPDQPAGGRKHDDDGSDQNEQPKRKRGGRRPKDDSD
Kind of assay: affinity purification with mass spectrometry; S-tagged bait captured from crude A. fumigatus protein extract on S-protein agarose beads, 4 °C for 2 h, washed in HK buffer with 100 mM NaCl, eluted in Laemmli sample buffer, LC/MS identification (>2 matched peptides).

For assay [2], the target named is T2, C-terminally S-tagged version of NctB (NctB-S-tag) (Aspergillus fumigatus) (UniProt B0Y0F3).
T2 sequence: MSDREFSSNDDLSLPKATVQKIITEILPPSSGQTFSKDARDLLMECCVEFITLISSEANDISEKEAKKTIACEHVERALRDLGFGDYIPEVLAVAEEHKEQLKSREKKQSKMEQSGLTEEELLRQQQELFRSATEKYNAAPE
The description is as above.

In the case of “TBP-associated transcriptional regulator Mot1”, the binding entry in assay [1] and in assay [2] was “binds” each time. Consider transcriptional co-repressor Cyc8, for which, in assay [1], the binding result is reported as “binds”.

B1: NctB (protein, UniProt B0Y0F3 1-142)
chain: T2 sequence
With B1, the binding result in assay [1] is “binds”.

B2: NctA (protein, UniProt B0XTT5 1-247)
chain: T1 sequence
As for B2, the binding result in assay [2] was “binds”.
